This passage reports binding results from patent publication US20230158060A1.

Sequences of proteins named here, by UniProt entry; tags and fusion partners are left off. A change or cut given only in a name is not applied to a line headed by its entry. A line that says so, or that is headed by a name, gives the form on record, which may keep a tag or linker. Residues count along the entry.
UniProt O00187: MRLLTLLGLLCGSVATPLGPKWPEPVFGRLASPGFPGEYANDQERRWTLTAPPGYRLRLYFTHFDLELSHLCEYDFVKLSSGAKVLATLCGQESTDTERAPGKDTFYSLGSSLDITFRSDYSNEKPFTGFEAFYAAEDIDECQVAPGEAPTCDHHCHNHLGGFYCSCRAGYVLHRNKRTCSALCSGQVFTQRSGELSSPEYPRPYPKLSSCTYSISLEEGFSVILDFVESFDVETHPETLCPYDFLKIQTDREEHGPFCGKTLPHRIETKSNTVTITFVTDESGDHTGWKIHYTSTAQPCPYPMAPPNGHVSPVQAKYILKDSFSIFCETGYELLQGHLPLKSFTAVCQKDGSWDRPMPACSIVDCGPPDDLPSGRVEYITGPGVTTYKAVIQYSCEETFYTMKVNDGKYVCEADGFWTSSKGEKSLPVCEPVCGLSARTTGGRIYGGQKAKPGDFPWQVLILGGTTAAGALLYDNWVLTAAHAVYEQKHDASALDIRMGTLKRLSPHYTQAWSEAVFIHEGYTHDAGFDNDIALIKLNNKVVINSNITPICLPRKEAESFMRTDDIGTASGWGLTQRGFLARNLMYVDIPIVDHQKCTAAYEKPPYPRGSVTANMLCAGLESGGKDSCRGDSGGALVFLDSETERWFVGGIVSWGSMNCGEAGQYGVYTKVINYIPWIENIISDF
Flag-tagged MASP-2 C-terminal CCP1-CCP2-SP region: residues 298-686 of O00187
UniProt P11226: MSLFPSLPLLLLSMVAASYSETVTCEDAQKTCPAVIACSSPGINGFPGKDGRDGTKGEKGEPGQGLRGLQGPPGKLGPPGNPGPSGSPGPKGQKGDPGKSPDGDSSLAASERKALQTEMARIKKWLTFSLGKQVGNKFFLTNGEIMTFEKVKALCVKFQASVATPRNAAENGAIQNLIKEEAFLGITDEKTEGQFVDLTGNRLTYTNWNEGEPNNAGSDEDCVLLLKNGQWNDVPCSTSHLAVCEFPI

These are yes or no findings as the source states them, for the method shown. For some of these results: Binding seen in cells or lysates may run through a third protein. Some entries that bind do so weakly or less than the wild type.

In experiment [1] the target is Flag-tagged MASP-2 C-terminal CCP1-CCP2-SP region (UniProt O00187). The experiment is described as follows: co-immunoprecipitation on Flag-tagged MASP-2 region beads, immunoblot. (In general: Immunoblotting shows a protein as a band on a membrane.)
For experiment [2], the target named is Flag-tagged full-length MASP-2 (UniProt O00187). The experiment is described as follows: co-immunoprecipitation, immunoblot (title of FIG. 1).
Experiment [3] has the same target. The experiment is described as follows: summary of the study's co-immunoprecipitation results.
Experiment [4] addresses mannan-binding lectin (MBL), purified (Homo sapiens (Human)) (UniProt P11226). Description: ELISA, MBL on mannan-coated wells at 4° C., detection with anti-MASP-2 antibody. On the technique in general: ELISA stands for enzyme-linked immunosorbent assay.

For the substance “GFP-tagged SARS-CoV N protein, full length (from UniProt P59595 1-422)”, the binding entry in experiment [1], in experiment [2] and in experiment [3] was “binds” in each case.

As for “purified MASP-2 (from UniProt O00187 16-686) (enzyme)”, in experiment [4], the binding result is recorded as “binds”.
